## Primary screen of a compound library

Each number is a percent effect as filed. The controls that fix the scale are not given in the record; negative values are as filed. The compounds are a random part of those screened.

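Phenotypic screen: M. tuberculosis growth, cholesterol and DPPC medium, 4 days; the read-out is not stated. Concentration: 500 µM. Higher reads as more growth inhibition (inferred: compounds with an IC50 in retests scored well above the rest). Size under these conditions: about 18,000 compounds, about 900 of them at 50% or above in at least one test.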

compound	percent effect
CC(=O)C1CCN(C)CC1	-3.87
CC(C)(C)c1nc(C(C)(C)N)no1	-7.428
CC(=O)NC1CCN(C2CCCCC2)CC1	1.518
Nc1ncnc(N2CCC(CO)CC2)c1Cl	-13.89
CC(=O)OCc1cc(=O)n2ccsc2n1	0.2113
CN(CCC#N)C(=O)COC(=O)c1ccccc1Br	0.9744
O=c1cc(CSCCO)c2ccccc2[nH]1	5.151
CCN1CCN(CC(=O)NC(C)(C)C)CC1	-12.84
NC(=O)CCN1CCCC1	-10.9
COc1ccc(CNC(=O)c2cnsn2)cc1	-10.32
Cn1cc(-c2csc(C3CCCO3)n2)cn1 (stereo unspecified)	37.12
NCc1ccc(-c2ccco2)o1	7.356
CC(c1ccccn1)N(C)S(C)(=O)=O (stereo unspecified)	1.657
CC(C(=O)NC1CC1)N1CCC(N2CC=CC2)CC1 (stereo unspecified)	6.263
Cc1cc(CNC(C)Cn2cccn2)no1 (stereo unspecified)	-14.65
COCCNC(=O)NCCc1ccc(C)c(OC)c1	0.7885
O=S1(=O)CCC(NC2CCCC2)C1 (stereo unspecified)	-7.93
Cc1ccc(OCCOC(=O)N(C)C)nc1	-4.307
CCNC(=O)NCCOc1ccc(S(C)(=O)=O)cc1	8.232
Cc1nc(C(=O)NCc2cccs2)ccc1C#N	86.31
Cc1cc(NC(=O)Cn2cc(Br)ccc2=O)no1	-7.706
Cc1nnc(CNC(=O)Cc2cc(F)cc(F)c2)o1	-15.1
COc1ccc(CNC(=O)CCNC(=O)C(C)C)cc1	-5.26
Cc1ccc(CNC(=O)NCCO)cc1	0.9858
COc1ccc(OCCCS(N)(=O)=O)cc1	20.79
Cn1cncc1C1CCCCN1 (stereo unspecified)	-5.267
COc1ccccc1CNCCCSc1nnnn1C	6.509
CCn1ncnc1C(NC(=O)c1cncs1)C1CC1 (stereo unspecified)	7.29
CCNC(=O)c1cc(S(=O)(=O)NC(C)C)cn1C	3.115
Cc1nnc(SCCCN)s1	15.62
COC(C)(C)c1noc(-c2cccc3c2OCO3)n1	31.53
COCc1noc(C2CCN(CC(F)(F)F)CC2)n1	41.09
CC(Cc1cccs1)C(=O)NC(C)(CO)CO (stereo unspecified)	-0.09356
CC(C)(C)C(=O)N1CCN(CCCC#N)CC1	-5.149
CCOCCN1CCN(CC)[C@@H]2CS(=O)(=O)C[C@@H]21	-4.469
CC(NC(=O)c1ccc(Cl)c(S(C)(=O)=O)c1)C1CC1 (stereo unspecified)	25.73
C1CN(Cc2nc(C3CC3)no2)CCS1	45.13
NCC1(CC(N)=O)CCCCC1	10.95
CC(C)OCc1nnc(C(C)N)o1 (stereo unspecified)	-10.01
Cc1ccccc1C(C)NC(=O)Cn1ccccc1=O (stereo unspecified)	-7.848
O=C(c1cccnc1)N1CCC(C(O)C(F)(F)F)CC1 (stereo unspecified)	14.77
CCCNC(=O)c1cc(Br)c[nH]1	45.06
CCOc1cccc(CCN)n1	101.2
OCCn1nc(C2CCCC2)nc1C1CCOC1 (stereo unspecified)	-2.371
C1CC(COCCc2noc(C3CNC3)n2)CCO1	74.26
CC1CCN(CCC(=O)Nc2sccc2C(N)=O)CC1	33.21
COC[C@@H]1CCCN1C(=O)Nc1cnns1	-14.7
CCCOc1cccc(NC(=O)C(C)n2cncn2)c1 (stereo unspecified)	44.58
CCOCCN1CCN(C(=O)CN2CCCC2)CC1	-31.62

Source: ChEMBL document CHEMBL3988442, “University of Dundee, Small-Polar-MMV Screening Library” (2021).